Test results published in patent US20140242384A1, “REMOVABLE WATER-DISPERSIBLE ACRYLIC PRESSURE-SENSITIVE ADHESIVE COMPOSITION AND PRESSURE-SENSITIVE ADHESIVE SHEET” (NITTO DENKO CORPORATION, priority 2011, published 2014).
Some of these results come from one statement about several compounds together.

Assay: Solubility of crosslinking agent in water
Assay type: physicochemical

SMILES	solubility in 100 parts by weight of water at 25° C.
C1CC(CN(CC2CO2)CC2CO2)CC(CN(CC2CO2)CC2CO2)C1 (centres unmarked) [TETRAD-C, 1,3-bis(N,N-diglycidylaminomethyl)cyclohexane]	≤ 2 parts by weight
c1cc(CN(CC2CO2)CC2CO2)cc(CN(CC2CO2)CC2CO2)c1 (centres unmarked) [TETRAD-X, 1,3-bis(N,N-diglycidylaminomethyl)benzene]	≤ 2 parts by weight
